Reference: US20220056097A1
These are yes or no findings as the source states them, for the method shown. Some binding calls cover weakened binding; strength is not graded here.

The chains behind the UniProt entries cited, without tags or fusion partners. Where a name states a change or a piece, a line headed by the entry shows the natural chain unless it says otherwise. Residues count along the entry.
UniProt Q8VZS8: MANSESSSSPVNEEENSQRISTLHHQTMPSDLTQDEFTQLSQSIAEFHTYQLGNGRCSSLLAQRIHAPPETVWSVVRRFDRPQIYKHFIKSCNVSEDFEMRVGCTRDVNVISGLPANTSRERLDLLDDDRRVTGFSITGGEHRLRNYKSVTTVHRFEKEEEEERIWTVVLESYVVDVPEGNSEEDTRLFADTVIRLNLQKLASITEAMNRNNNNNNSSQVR
UniProt Q13263, residues 2-835: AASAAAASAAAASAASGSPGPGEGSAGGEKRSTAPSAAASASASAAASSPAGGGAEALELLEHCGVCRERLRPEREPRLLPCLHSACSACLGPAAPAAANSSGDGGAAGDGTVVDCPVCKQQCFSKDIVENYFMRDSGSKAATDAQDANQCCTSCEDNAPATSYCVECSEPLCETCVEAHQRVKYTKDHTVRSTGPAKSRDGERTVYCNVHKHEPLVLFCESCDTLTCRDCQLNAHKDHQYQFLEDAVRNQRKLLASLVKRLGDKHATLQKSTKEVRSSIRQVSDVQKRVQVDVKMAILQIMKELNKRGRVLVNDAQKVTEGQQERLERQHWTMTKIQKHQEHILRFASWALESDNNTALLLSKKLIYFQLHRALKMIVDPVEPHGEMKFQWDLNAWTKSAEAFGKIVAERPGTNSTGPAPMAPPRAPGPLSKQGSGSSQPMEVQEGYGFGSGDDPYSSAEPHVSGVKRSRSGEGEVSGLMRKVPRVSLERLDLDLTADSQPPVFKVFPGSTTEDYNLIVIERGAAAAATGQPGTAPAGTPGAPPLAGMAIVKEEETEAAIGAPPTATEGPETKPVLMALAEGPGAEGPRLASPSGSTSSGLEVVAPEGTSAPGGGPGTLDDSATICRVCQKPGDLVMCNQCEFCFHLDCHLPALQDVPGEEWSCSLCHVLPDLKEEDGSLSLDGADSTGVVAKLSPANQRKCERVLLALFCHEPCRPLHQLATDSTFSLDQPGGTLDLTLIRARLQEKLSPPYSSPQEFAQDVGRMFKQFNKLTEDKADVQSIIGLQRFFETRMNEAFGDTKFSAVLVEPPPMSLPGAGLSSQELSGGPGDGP
UniProt P45973: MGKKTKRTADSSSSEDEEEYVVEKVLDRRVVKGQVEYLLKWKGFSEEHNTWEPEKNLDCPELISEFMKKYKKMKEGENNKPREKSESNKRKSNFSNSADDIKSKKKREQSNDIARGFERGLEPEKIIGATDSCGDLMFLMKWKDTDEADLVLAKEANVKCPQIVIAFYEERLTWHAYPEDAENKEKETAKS

Assays:
PYL1-sfGFP-KRAB [1] = molecular target: PYL1-sfGFP-KRAB (UniProt Q8VZS8); experiment: immunostaining at ABA-induced KRAB foci in U2OS cells
PYL1-sfGFP-KRAB [2] = molecular target: PYL1-sfGFP-KRAB (UniProt Q8VZS8); experiment: immunostaining of KAP1 and linear fluorescence tracing at ABA-induced PYL1-sfGFP-KRAB foci in U2OS cells, 2 days 100 µM ABA
PYL1-sfGFP-KRAB [3] = molecular target: PYL1-sfGFP-KRAB (UniProt Q8VZS8); experiment: immunostaining of KAP1 and linear fluorescence tracing (FIG. 78)
PYL1-sfGFP-KRAB [4] = molecular target: PYL1-sfGFP-KRAB (UniProt Q8VZS8); experiment: confocal co-localization and linear fluorescence tracing (FIG. 77)
PYL1-sfGFP-KRAB [5] = molecular target: PYL1-sfGFP-KRAB (UniProt Q8VZS8); experiment: confocal co-localization at ABA-induced KRAB foci in U2OS cells
PYL1-sfGFP-KRAB [6] = molecular target: PYL1-sfGFP-KRAB (UniProt Q8VZS8); experiment: confocal co-localization and linear fluorescence tracing at ABA-induced PYL1-sfGFP-KRAB foci in U2OS cells, 2 days ABA; filing describes recruitment as indirect via KAP1

Measured: binding

KAP1 (from UniProt Q13263 2-835)
binds: PYL1-sfGFP-KRAB [1] | PYL1-sfGFP-KRAB [2] | PYL1-sfGFP-KRAB [3]

mCherry-HP1α (from UniProt P45973 1-191)
binds: PYL1-sfGFP-KRAB [4] | PYL1-sfGFP-KRAB [5] | PYL1-sfGFP-KRAB [6]
